Measurements published in publication PMC6345044.
No constants are given. Whether binding was seen depends on the method and setting. In cells and extracts the contact can be indirect. These calls come from enrichment with a bait or labelling near it, and not all partners need be listed.

Molecular target: T1, tumor protein D54 (human (endogenous in MCF-7)) (UniProt O43399)
T1 sequence: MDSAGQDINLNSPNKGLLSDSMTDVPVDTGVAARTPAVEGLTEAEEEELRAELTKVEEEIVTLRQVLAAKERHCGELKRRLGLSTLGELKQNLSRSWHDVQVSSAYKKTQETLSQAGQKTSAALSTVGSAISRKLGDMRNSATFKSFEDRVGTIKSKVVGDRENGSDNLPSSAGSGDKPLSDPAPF
Assay: affinity purification with mass spectrometry; TPD54 immunoprecipitated from MCF-7 cells, then mass spectrometry of the co-precipitated proteins

binding: binds
B1: pyruvate dehydrogenase B subunit (protein, UniProt P11177 31-359)
chain: LQVTVRDAINQGMDEELERDEKVFLLGEEVAQYDGAYKVSRGLWKKYGDKRIIDTPISEMGFAGIAVGAAMAGLRPICEFMTFNFSMQAIDQVINSAAKTYYMSGGLQPVPIVFRGPNGASAGVAAQHSQCFAAWYGHCPGLKVVSPWNSEDAKGLIKSAIRDNNPVVVLENELMYGVPFEFPPEAQSKDFLIPIGKAKIERQGTHITVVSHSRPVGHCLEAAAVLSKEGVECEVINMRTIRPMDMETIEASVMKTNHLVTVEGGWPQFGVGAEICARIMEGPAFNFLDAPAVRVTGADVPMPYAKILEDNSIPQVKDIIFAIKKTLNI
